Screen size: about 390,000 compounds; about 910 (0.23%) were called active. Inconclusive results, whose numbers are uncertain, are shown with a selection of clear calls. The call rests on the fitted dose curve; in most records, active means well fitted inhibition curve with a large enough effect; inconclusive means small, poorly fitted or top-dose-only effect; inactive means no such curve, though single readings can be large or run the other way. A potency beside an inconclusive call is a rough fit, not a confirmed value.
Target: Ubiquitin carboxyl-terminal hydrolase 1 (Homo sapiens) (UniProt O94782)
Assay: Inhibitors of USP1/UAF1: Primary Screen; further: nearly all actives have a fitted effect of over 60% in size
Conditions: recombinant USP1/UAF1, Ub-Rhodamine cleavage fluorescence; activity change, negative = inhibition: at 57.1 µM (top of the series)
Method in brief: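 USP1/UAF1 complex at 1 nM was preincubated with compound for 15 min at room temperature, then Ub-Rho substrate (150nM final) was added. Fluorescence (480/540 nm) was read kinetically, 6 reads every 60 seconds.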
On the % scale 0 is the no-effect control and ±100 the full control effect; potency means the concentration at half of the fitted maximal effect.

By UniProt entry, the sequences of proteins in these tests, tags left out. Where a name states a change or a piece, a line headed by the entry shows the natural chain unless it says otherwise.
UniProt O94782: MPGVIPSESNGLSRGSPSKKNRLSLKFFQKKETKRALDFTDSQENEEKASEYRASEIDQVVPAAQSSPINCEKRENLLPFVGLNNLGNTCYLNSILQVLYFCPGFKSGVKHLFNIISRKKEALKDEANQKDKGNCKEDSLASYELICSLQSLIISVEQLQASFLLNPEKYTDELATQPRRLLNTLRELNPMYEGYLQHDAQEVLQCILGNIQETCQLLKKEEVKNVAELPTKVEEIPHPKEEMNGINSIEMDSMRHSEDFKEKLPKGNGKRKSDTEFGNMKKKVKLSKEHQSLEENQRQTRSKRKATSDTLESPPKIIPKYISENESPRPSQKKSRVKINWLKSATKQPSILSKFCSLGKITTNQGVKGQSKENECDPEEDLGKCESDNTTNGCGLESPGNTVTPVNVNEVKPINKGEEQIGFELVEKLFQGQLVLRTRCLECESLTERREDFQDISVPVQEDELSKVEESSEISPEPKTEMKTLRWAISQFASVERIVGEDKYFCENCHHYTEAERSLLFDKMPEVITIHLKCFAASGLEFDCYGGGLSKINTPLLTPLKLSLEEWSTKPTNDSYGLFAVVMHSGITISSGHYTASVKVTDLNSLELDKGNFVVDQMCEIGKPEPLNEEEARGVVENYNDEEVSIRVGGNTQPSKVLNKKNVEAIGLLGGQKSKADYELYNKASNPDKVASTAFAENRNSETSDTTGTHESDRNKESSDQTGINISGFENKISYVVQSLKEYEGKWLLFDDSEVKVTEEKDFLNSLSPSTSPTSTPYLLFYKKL

Activity change, negative = inhibition, inconclusive:
O=C(NCc1ccccc1)C(c1ccco1)N(C(=O)c1csnn1)c1ccccc1 (stereo not given) 4.33% [inhibitor]

Activity change, negative = inhibition, inactive:
Cc1cccc(-c2nsc(SCC(=O)NCc3ccco3)n2)c1 -8.95%
CCCn1nc(NC(=O)c2cccc(Cl)c2)c2cc3cccc(C)c3nc21 -8.61%
Nn1c(SCC(=O)Nc2ccc3c(c2)OCCO3)nnc1-c1ccccn1 -1.01%
COc1ccc(CCN(C)C(=O)CCc2nnc(-c3ccccc3)o2)cc1OC -18.6%
CCc1nc(Nc2ccc(N3CCN(C(C)=O)CC3)cc2)c2oc3ccccc3c2n1 1.03%
COc1cc2ccc(NC(C)=O)cc2cc1OC 2.83%
CC(C)c1ccc(/C=C/C(=O)N2CCOCC2)cc1 -2.71%
Cc1ccc(-n2nc(C(=O)Nc3cccc(C#N)c3)c3c4ccccc4n(C)c3c2=O)cc1 -20%
CN(C)c1ccc2c3c(ccc(N(C)C)c13)COC2 -17.9%
O=C(Cn1c(=O)n(CCc2ccccc2)c(=O)c2c3c(sc21)CCCC3)Nc1ccc(F)c(F)c1 -19.1%
COc1ccc(NC(=O)C2CCN(C(=O)c3cccs3)CC2)c(OC)c1 -6.94%
NC(=O)c1sc2nc(-c3ccco3)ccc2c1N -16.7%
CN(C)CCCNCC(=O)Nc1ccccc1N1CCOCC1 -18.8%
COc1cccc(CNS(=O)(=O)c2ccc(N3CCCCS3(=O)=O)cc2)c1 8.84%
CSc1nc(C)c(Oc2ccccc2)c(=O)n1C -12.2%
C/C(=N\NC(=S)Nc1ccccc1C)c1cc2ccccc2o1 -25.2%
COc1cc2c(cc1OC)CN(C(=O)c1cccc([N+](=O)[O-])c1)CC2 -2.97%
Cc1ccc(C2=NCCn3c2c2ccccc2[n+]3[O-])cc1 -5.93%

Potency, active:
O/C=c1\ccc2cccc3nc(C(F)(F)F)nc1c23 22.4 µM

Potency, inconclusive:
COC(=O)c1ccc(CNC(=O)C(NC(=O)c2ccco2)C(C)C)cc1 (stereo not given) 7.94 µM [inhibitor, partial curve, poor fit]
Cn1c(=O)n(C)c2cc(NC(=O)c3cc4ccccc4o3)ccc21 0.316 µM [inhibitor, full curve, poor fit]
CN(c1ccccc1)S(=O)(=O)c1ccc2c(c1)oc(=O)n2C 0.0891 µM [inhibitor, full curve, poor fit]
CCOC(=O)c1c[nH]c2c([N+](=O)[O-])cc(OC)cc2c1=O 39.8 µM [inhibitor, single point]
CN(C)c1ccc(C=c2c3ccccc3n3c2c2ccccc2[n+]3C)cc1 28.2 µM [inhibitor, partial curve]
COc1cc(CNc2ccc(O)cc2)cc(Br)c1OCc1ccccc1F 35.5 µM [inhibitor, single point]
CCC(C)Sc1nnc(Cc2cc(=O)[nH]c(=O)[nH]2)n1-c1ccc(F)cc1 (stereo not given) 0.794 µM [inhibitor, full curve]
CC(=O)C1=C(c2ccc(Cl)c(Cl)c2)N(C(C)=O)n2cnnc2S1 15.8 µM [inhibitor, partial curve]
Cc1ccccc1NC(=O)CCNC(=O)Cn1ccc2ccccc2c1=O 11.2 µM [inhibitor, partial curve]
COc1ccc(NC(=O)C(NC(=O)/C=C\c2ccc3c(c2)OCO3)c2ccc(OC)cc2)cc1 (stereo not given) 7.08 µM [inhibitor, single point]
O=C(CC1Oc2ccccc2NC1=O)NCCCN1CCN(C2CCCCC2)CC1 (stereo not given) 0.708 µM [inhibitor, full curve, poor fit]
COc1cc(OC)cc(-c2c(C#Cc3ccsc3)c3cc(-c4ccc(OC)cc4F)ccc3n2C)c1 31.6 µM [inhibitor, single point]
COc1ccc(C(=O)N2CCCCC2C(=O)Nc2ccc(-n3nc(C)cc3C)cc2)o1 (stereo not given) 50.1 µM [inhibitor, partial curve, poor fit]
CCOC(=O)C1CCCN(Cc2cn3c(-c4ccc(Br)cc4)nnc3s2)C1 (stereo not given) 50.1 µM [inhibitor, partial curve, poor fit]
COc1ccc(-n2c(-c3ccccc3)cc3c2CCCC3=O)cc1 28.2 µM [inhibitor, partial curve]
O=C(COc1ccccc1)Nc1ccc(Cl)cn1 39.8 µM [inhibitor, partial curve, poor fit]
C[C@@H]1CN([C@@H](C)CO)C(=O)CCCn2nncc2CO[C@@H]1CN(C)C(=O)c1ccccc1 0.282 µM [inhibitor, full curve]
CCCCSc1nc(N)nc2c1ncn2C1OC(CO)C(O)C1O (stereo not given) 8.91 µM [inhibitor, partial curve]
COc1ccc(NCc2cc3ccc(OC)cc3n(CC(=O)Nc3cccc(OC)c3)c2=O)cc1 31.6 µM [inhibitor, partial curve]
CCCc1nnc(NC(=O)Cc2coc3ccc(C)cc23)s1 31.6 µM [inhibitor, single point]
COC(=O)[C@@]12CCCN1[C@H](c1ccc(-c3ccccc3)cc1)[C@@H]1C(=O)N(C)C(=O)[C@@H]12 44.7 µM [inhibitor, single point]
COc1ccc(-c2nnc(Nc3nc4c(OC)cccc4s3)o2)cc1 25.1 µM [inhibitor, single point]
N=c1n(CCO)c2ccccc2n1CCOc1ccc(Cl)cc1Cl 35.5 µM [inhibitor, partial curve]
O=C(COC(=O)C1CCC1)NCc1ccccc1 0.355 µM [inhibitor, full curve]
CC(=O)NNc1ncnc2c1cnn2-c1ccc(C)c(C)c1 5.62 µM [inhibitor, partial curve]
CC1Cc2ccccc2N1C(=O)Cn1c(=O)oc2cc(S(=O)(=O)N3CCCCC3)ccc21 (stereo not given) 1.58 µM [inhibitor, partial curve, poor fit]
COc1ccc(OC)c(S(=O)(=O)N2CCC3(CC2)OCCN3S(=O)(=O)c2ccccc2)c1 50.1 µM [inhibitor, partial curve, poor fit]
Cc1ccc(CNC(=O)c2cc3c(s2)-c2ccc(Cl)cc2SC3)cc1 0.794 µM [inhibitor, full curve, poor fit]
CCCCC/C=C/C1=CC(=O)C[C@H](c2ccc(Cl)cc2)C1 10 µM [inhibitor, full curve]
O=c1c2sccc2nc(SCc2cc(=O)n3cc(Cl)ccc3n2)n1Cc1ccccn1 1 µM [inhibitor, full curve]
CCN(CC)S(=O)(=O)c1ccc(N2CCOCC2)c(NC(=O)c2cc3ccccc3o2)c1 10 µM [inhibitor, full curve]
C[C@@H]1C(c2ccc(F)cc2)=NN(c2ccc(Br)cc2)[C@H]1C(=O)N1CCOC1=O 44.7 µM [inhibitor, partial curve, poor fit]
COc1ccc(N=Nc2nc(-c3ccccc3)c(-c3ccccc3)[nH]2)cc1 35.5 µM [inhibitor, partial curve]
O=c1[nH]c(CSc2ncc(-c3ccc(F)cc3)n2Cc2ccco2)nc2ccccc12 44.7 µM [inhibitor, partial curve, poor fit]
COc1ccc(NS(=O)(=O)c2cc([N+](=O)[O-])ccc2N/N=C/c2c(C)[nH]c3ccccc23)cc1 0.224 µM [inhibitor, full curve, poor fit]
CCN1C(=O)[C@H]2[C@@H](c3ccc(-c4ccc(F)cc4)c(OC)c3)N[C@@](Cc3ccccc3)(C(=O)OC)[C@H]2C1=O 70.8 µM [inhibitor, partial curve, poor fit]
CCN1C(=O)[C@H]2[C@@H](c3ccc(OC)cc3)N[C@]3(CCCN(Cc4ccc(C)cc4)C3=O)[C@H]2C1=O 44.7 µM [inhibitor, partial curve, poor fit]
COC(=O)N/N=C/c1c[n+]([O-])c2ccccc2[n+]1[O-] 14.1 µM [inhibitor, partial curve]
Cc1cc(-c2nnc(SCC(=O)Nc3c(C)cccc3C)n2N)n[nH]1 2 µM [inhibitor, full curve]
C[C@@H]1CN([C@@H](C)CO)C(=O)CCCn2nncc2CO[C@@H]1CN(C)S(=O)(=O)c1ccccc1F 0.282 µM [inhibitor, full curve, poor fit]
CC(=O)N1c2ccc(Cl)cc2C2C=CCC2C1c1cccc2ccccc12 (stereo not given) 31.6 µM [inhibitor, partial curve]
C[C@H](CO)N1C[C@H](C)[C@@H](CN(C)C(=O)NC2CCCCC2)Oc2ccc(NC(=O)c3ccncc3)cc2C1=O 10 µM [inhibitor, partial curve, poor fit]
O=C(C1CCN(S(=O)(=O)Cc2ccccc2)CC1)N1CCN(c2ccccc2F)CC1 6.31 µM [inhibitor, full curve, poor fit]
Cc1ccc(C)c(Nc2nc3nonc3nc2Nc2cccc(C)c2C)c1 7.08 µM [inhibitor, partial curve]
COc1cccc2sc3cc(C#Cc4ccccn4)ccc3c(=O)c12 0.794 µM [inhibitor, full curve, poor fit]

Ordered by heavy-atom count (ascending): some entries from above.
Potency, inconclusive:
O=C(COc1ccccc1)Nc1ccc(Cl)cn1 39.8 µM [inhibitor, partial curve, poor fit]
CCCCC/C=C/C1=CC(=O)C[C@H](c2ccc(Cl)cc2)C1 10 µM [inhibitor, full curve]
CC(=O)NNc1ncnc2c1cnn2-c1ccc(C)c(C)c1 5.62 µM [inhibitor, partial curve]
Cn1c(=O)n(C)c2cc(NC(=O)c3cc4ccccc4o3)ccc21 0.316 µM [inhibitor, full curve, poor fit]
COc1ccc(-c2nnc(Nc3nc4c(OC)cccc4s3)o2)cc1 25.1 µM [inhibitor, single point]
COc1ccc(N=Nc2nc(-c3ccccc3)c(-c3ccccc3)[nH]2)cc1 35.5 µM [inhibitor, partial curve]
C[C@@H]1C(c2ccc(F)cc2)=NN(c2ccc(Br)cc2)[C@H]1C(=O)N1CCOC1=O 44.7 µM [inhibitor, partial curve, poor fit]
O=C(CC1Oc2ccccc2NC1=O)NCCCN1CCN(C2CCCCC2)CC1 (stereo not given) 0.708 µM [inhibitor, full curve, poor fit]
O=c1[nH]c(CSc2ncc(-c3ccc(F)cc3)n2Cc2ccco2)nc2ccccc12 44.7 µM [inhibitor, partial curve, poor fit]
CCN(CC)S(=O)(=O)c1ccc(N2CCOCC2)c(NC(=O)c2cc3ccccc3o2)c1 10 µM [inhibitor, full curve]
COc1ccc(NC(=O)C(NC(=O)/C=C\c2ccc3c(c2)OCO3)c2ccc(OC)cc2)cc1 (stereo not given) 7.08 µM [inhibitor, single point]
COc1ccc(NCc2cc3ccc(OC)cc3n(CC(=O)Nc3cccc(OC)c3)c2=O)cc1 31.6 µM [inhibitor, partial curve]
CCN1C(=O)[C@H]2[C@@H](c3ccc(-c4ccc(F)cc4)c(OC)c3)N[C@@](Cc3ccccc3)(C(=O)OC)[C@H]2C1=O 70.8 µM [inhibitor, partial curve, poor fit]
C[C@H](CO)N1C[C@H](C)[C@@H](CN(C)C(=O)NC2CCCCC2)Oc2ccc(NC(=O)c3ccncc3)cc2C1=O 10 µM [inhibitor, partial curve, poor fit]

— PubChem BioAssay AID743255 (National Center for Advancing Translational Sciences (NCATS), 2014)
